At least one compound was matched to its structure with a doubt left.
What was measured:
PC12 cells [1] = test: Suppression of β25-35 peptide cytotoxicity, MTT assay (Example 3); format: cell-based, rat; settings: 10 µg/ml of β25-35 peptide; Fig. 1
PC12 cells [2] = test: Suppression of β1-40 peptide cytotoxicity, lactate dehydrogenase (LDH) assay (Example 7); format: cell-based, rat; settings: β1-40 peptide 1 µg/ml and 0.1 µg/ml, aged 7 days, Fig. 4

CO[C@H]1/C=C/O[C@@]2(C)Oc3c(C)c(O)c4c(O)c(c(/C=N/N5CCN(C)CC5)c(O)c4c3C2=O)NC(=O)/C(C)=C\C=C\[C@H](C)[C@H](O)[C@@H](C)[C@@H](O)[C@@H](C)[C@H](OC(C)=O)[C@@H]1C [rifampicin, Rifampicin]
MTT reduction-lowering effect of β25-35 on PC12 cells (PC12 cells [1]): suppressed the MTT reduction-lowering effect of β25-35 on PC12 cells in a dose-dependent manner | increase in lactate dehydrogenase activity due to β1-40 peptide (PC12 cells [2]; rifampicin 10 µg/ml): completely suppressed | increase in lactate dehydrogenase activity due to β1-40 peptide (PC12 cells [2]; rifampicin dose series): suppressed by rifampicin in a dose-dependent manner
